For assay [1], the target named is T1, C-terminal half of CHLH/ABAR (amino acid residues 692-1381) linked to the Gal4 DNA binding domain (Arabidopsis thaliana) (UniProt Q9FNB0).
T1 sequence: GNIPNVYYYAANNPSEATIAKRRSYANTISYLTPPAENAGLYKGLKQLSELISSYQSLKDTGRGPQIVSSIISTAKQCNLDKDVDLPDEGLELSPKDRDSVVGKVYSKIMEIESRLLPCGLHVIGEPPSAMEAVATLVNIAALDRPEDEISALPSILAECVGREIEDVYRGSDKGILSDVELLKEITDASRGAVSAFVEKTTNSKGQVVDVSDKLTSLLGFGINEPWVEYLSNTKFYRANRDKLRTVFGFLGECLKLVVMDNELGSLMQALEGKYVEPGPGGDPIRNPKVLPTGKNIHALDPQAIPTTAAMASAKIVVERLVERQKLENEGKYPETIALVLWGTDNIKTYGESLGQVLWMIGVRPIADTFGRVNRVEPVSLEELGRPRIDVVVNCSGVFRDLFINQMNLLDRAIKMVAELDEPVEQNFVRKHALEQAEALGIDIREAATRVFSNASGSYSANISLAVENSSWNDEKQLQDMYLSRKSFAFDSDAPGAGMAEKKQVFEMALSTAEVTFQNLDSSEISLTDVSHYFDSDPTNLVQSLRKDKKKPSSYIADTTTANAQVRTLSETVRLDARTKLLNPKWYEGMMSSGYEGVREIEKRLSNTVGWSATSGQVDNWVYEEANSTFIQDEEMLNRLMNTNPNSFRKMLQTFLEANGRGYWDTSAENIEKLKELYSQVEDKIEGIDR
The assay is described as follows: two-hybrid; yeast Gal4-based system (Clontech); truncated ABARs on BD (bait, pGBKT7), CHLI1 or CHLD on AD (prey, pGADT7); growth on SD medium lacking Leu, Trp, His and Ade, drop test and liquid β-galactosidase assay (ONPG); with or without 2 μM (±)ABA, which did not affect the interactions.

Chains of the proteins cited; added tags and fusions are not shown. Lines headed by an entry give the natural chain unless they say otherwise; changes in a name come on top.
UniProt Q9SJE1: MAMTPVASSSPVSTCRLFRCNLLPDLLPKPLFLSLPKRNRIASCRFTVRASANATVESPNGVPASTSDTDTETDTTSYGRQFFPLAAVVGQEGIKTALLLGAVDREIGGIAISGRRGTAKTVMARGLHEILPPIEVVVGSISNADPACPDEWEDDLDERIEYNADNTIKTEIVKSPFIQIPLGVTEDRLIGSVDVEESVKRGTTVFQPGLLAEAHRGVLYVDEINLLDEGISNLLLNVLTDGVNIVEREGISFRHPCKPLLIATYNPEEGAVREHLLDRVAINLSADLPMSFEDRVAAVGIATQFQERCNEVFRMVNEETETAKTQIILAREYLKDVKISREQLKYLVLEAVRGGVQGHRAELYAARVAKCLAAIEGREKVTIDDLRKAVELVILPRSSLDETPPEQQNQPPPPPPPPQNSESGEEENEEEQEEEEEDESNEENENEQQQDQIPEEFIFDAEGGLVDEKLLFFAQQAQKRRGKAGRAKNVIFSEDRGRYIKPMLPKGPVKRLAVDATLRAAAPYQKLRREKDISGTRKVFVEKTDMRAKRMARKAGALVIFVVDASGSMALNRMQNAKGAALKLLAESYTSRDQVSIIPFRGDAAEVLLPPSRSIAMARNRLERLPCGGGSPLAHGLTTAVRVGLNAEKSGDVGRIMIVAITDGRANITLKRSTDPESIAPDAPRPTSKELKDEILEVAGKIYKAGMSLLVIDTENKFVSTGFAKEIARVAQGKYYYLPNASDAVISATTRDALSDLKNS

Assay [2] concerns the target T2, N-terminal half of CHLH/ABAR (amino acid residues 1-691) linked to the Gal4 DNA binding domain (Arabidopsis thaliana) (UniProt Q9FNB0).
T2 sequence: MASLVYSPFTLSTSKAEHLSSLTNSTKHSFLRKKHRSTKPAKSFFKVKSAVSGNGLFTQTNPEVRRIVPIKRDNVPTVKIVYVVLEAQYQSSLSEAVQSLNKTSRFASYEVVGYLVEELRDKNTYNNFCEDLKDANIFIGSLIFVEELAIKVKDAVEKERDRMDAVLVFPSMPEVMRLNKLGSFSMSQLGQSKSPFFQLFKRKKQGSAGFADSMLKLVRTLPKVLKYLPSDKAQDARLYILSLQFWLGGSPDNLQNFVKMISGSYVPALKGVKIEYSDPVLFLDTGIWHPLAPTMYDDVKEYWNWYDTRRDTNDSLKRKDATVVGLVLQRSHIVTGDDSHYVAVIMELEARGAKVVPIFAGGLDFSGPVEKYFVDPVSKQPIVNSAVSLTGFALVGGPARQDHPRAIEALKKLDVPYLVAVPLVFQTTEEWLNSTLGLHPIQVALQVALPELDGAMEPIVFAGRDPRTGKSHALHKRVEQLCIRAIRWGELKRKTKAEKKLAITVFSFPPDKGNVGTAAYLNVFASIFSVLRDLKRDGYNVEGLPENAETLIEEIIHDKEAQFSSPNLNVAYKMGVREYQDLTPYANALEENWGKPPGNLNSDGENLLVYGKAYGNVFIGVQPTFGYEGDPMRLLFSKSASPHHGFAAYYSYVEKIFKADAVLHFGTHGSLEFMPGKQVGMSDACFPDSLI
The assay is described as above.

Assay [3] concerns the target T3, middle region of CHLH/ABAR (amino acid residues 347-1038) linked to the Gal4 DNA binding domain (Arabidopsis thaliana) (UniProt Q9FNB0).
T3 sequence: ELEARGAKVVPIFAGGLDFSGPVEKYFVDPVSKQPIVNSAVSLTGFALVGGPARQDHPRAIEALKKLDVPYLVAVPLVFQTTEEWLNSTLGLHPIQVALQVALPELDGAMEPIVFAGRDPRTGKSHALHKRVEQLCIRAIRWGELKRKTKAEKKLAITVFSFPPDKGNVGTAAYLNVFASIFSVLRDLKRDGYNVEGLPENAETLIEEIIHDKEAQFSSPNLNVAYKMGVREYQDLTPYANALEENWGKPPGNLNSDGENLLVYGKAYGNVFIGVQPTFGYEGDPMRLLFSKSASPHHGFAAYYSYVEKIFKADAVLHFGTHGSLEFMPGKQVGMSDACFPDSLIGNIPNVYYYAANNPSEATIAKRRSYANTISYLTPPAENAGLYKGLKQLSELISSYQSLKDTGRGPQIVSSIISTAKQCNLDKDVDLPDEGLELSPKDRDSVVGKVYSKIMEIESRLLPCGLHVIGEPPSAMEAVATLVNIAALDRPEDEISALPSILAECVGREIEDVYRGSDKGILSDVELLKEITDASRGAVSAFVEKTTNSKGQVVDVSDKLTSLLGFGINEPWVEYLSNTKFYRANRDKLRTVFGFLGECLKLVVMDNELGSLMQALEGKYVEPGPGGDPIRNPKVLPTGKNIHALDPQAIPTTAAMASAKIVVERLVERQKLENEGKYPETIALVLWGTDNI
The assay is described as above.

Assay [4] has as its target CHLD (D subunit of Mg-chelatase), endogenous in Arabidopsis (Arabidopsis thaliana (endogenous in Arabidopsis total proteins)) (UniProt Q9SJE1). The assay is described as follows: co-IP; Arabidopsis total proteins (6 mg in 1 mL extraction buffer); IP with anti-CHLI1 or anti-CHLD serum, blot with anti-ABAR serum; preimmune serum as control.
Assay [5] has as its target T4, CHLI1 (I subunit of Mg-chelatase), endogenous in Arabidopsis (Arabidopsis thaliana (endogenous in Arabidopsis total proteins)) (UniProt P16127).
T4 sequence: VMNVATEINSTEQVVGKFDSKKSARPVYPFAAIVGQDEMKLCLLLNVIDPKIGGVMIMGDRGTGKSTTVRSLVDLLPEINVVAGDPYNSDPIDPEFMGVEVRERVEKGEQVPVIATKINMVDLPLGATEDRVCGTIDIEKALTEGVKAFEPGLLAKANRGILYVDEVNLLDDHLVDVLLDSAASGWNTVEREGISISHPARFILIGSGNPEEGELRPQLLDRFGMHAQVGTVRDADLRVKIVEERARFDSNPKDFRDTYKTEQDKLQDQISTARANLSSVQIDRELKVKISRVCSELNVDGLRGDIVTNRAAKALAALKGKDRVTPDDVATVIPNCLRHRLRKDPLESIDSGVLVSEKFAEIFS
Described as above.

Results are given in words; binding and its absence hold for the method and conditions named. For some assays here: In cells and extracts the contact can be indirect. Some entries that bind do so weakly or less than the wild type.

Among the data in paper PMC3472068, “Roles of the different components of magnesium chelatase in abscisic acid signal transduction” (Plant Molecular Biology, 2012) are binding values, retold here.

Turning to “full length CHLD (D subunit of Mg-chelatase) linked to the Gal4 activation domain (from UniProt Q9SJE1 1-760)”, the binding result in assay [1], in assay [2] and in assay [3] was “binds” each time.

B1: full length CHLI1 (I subunit of Mg-chelatase) linked to the Gal4 activation domain (protein, UniProt P16127 1-424)
chain: MASLLGTSSSAIWASPSLSSPSSKPSSSPICFRPGKLFGSKLNAGIQIRPKKNRSRYHVSVMNVATEINSTEQVVGKFDSKKSARPVYPFAAIVGQDEMKLCLLLNVIDPKIGGVMIMGDRGTGKSTTVRSLVDLLPEINVVAGDPYNSDPIDPEFMGVEVRERVEKGEQVPVIATKINMVDLPLGATEDRVCGTIDIEKALTEGVKAFEPGLLAKANRGILYVDEVNLLDDHLVDVLLDSAASGWNTVEREGISISHPARFILIGSGNPEEGELRPQLLDRFGMHAQVGTVRDADLRVKIVEERARFDSNPKDFRDTYKTEQDKLQDQISTARANLSSVQIDRELKVKISRVCSELNVDGLRGDIVTNRAAKALAALKGKDRVTPDDVATVIPNCLRHRLRKDPLESIDSGVLVSEKFAEIFS
Regarding B1, the binding result in assay [1], in assay [2] and in assay [3] was “binds” in each case.

B2: CHLH/ABAR (H subunit of Mg-chelatase), endogenous in Arabidopsis (protein, UniProt Q9FNB0 50-1381)
chain: AVSGNGLFTQTNPEVRRIVPIKRDNVPTVKIVYVVLEAQYQSSLSEAVQSLNKTSRFASYEVVGYLVEELRDKNTYNNFCEDLKDANIFIGSLIFVEELAIKVKDAVEKERDRMDAVLVFPSMPEVMRLNKLGSFSMSQLGQSKSPFFQLFKRKKQGSAGFADSMLKLVRTLPKVLKYLPSDKAQDARLYILSLQFWLGGSPDNLQNFVKMISGSYVPALKGVKIEYSDPVLFLDTGIWHPLAPTMYDDVKEYWNWYDTRRDTNDSLKRKDATVVGLVLQRSHIVTGDDSHYVAVIMELEARGAKVVPIFAGGLDFSGPVEKYFVDPVSKQPIVNSAVSLTGFALVGGPARQDHPRAIEALKKLDVPYLVAVPLVFQTTEEWLNSTLGLHPIQVALQVALPELDGAMEPIVFAGRDPRTGKSHALHKRVEQLCIRAIRWGELKRKTKAEKKLAITVFSFPPDKGNVGTAAYLNVFASIFSVLRDLKRDGYNVEGLPENAETLIEEIIHDKEAQFSSPNLNVAYKMGVREYQDLTPYANALEENWGKPPGNLNSDGENLLVYGKAYGNVFIGVQPTFGYEGDPMRLLFSKSASPHHGFAAYYSYVEKIFKADAVLHFGTHGSLEFMPGKQVGMSDACFPDSLIGNIPNVYYYAANNPSEATIAKRRSYANTISYLTPPAENAGLYKGLKQLSELISSYQSLKDTGRGPQIVSSIISTAKQCNLDKDVDLPDEGLELSPKDRDSVVGKVYSKIMEIESRLLPCGLHVIGEPPSAMEAVATLVNIAALDRPEDEISALPSILAECVGREIEDVYRGSDKGILSDVELLKEITDASRGAVSAFVEKTTNSKGQVVDVSDKLTSLLGFGINEPWVEYLSNTKFYRANRDKLRTVFGFLGECLKLVVMDNELGSLMQALEGKYVEPGPGGDPIRNPKVLPTGKNIHALDPQAIPTTAAMASAKIVVERLVERQKLENEGKYPETIALVLWGTDNIKTYGESLGQVLWMIGVRPIADTFGRVNRVEPVSLEELGRPRIDVVVNCSGVFRDLFINQMNLLDRAIKMVAELDEPVEQNFVRKHALEQAEALGIDIREAATRVFSNASGSYSANISLAVENSSWNDEKQLQDMYLSRKSFAFDSDAPGAGMAEKKQVFEMALSTAEVTFQNLDSSEISLTDVSHYFDSDPTNLVQSLRKDKKKPSSYIADTTTANAQVRTLSETVRLDARTKLLNPKWYEGMMSSGYEGVREIEKRLSNTVGWSATSGQVDNWVYEEANSTFIQDEEMLNRLMNTNPNSFRKMLQTFLEANGRGYWDTSAENIEKLKELYSQVEDKIEGIDR
With B2, the binding entry in assay [4] and in assay [5] was “binds” throughout.
